Measured values published in paper PMC12463063.

System: GhVOZ1 (Gossypium hirsutum)
Assay: EMSA
Details: nuclear extract; 25 °C for 30 min with nuclear extract; non-denaturing 6% PAGE in 0.5x TBE, 60 V, 4 °C, 1 h; binding buffer, salt and pH not stated; protein in an extract; label: 5'-biotin

Does “CAGTAGAACGCTCTCAAC (double strand) [GhGA3ox1 promoter P1 probe]” bind?
Result: binds

The exact form of at least one protein or probe is not confirmed. Where cells or extracts were used, other partners may take part.
